{
  "source": "patent US20050059645A1",
  "about": "“Methods for the treatment of male and female sexual dysfunction” (priority 2003, published 2005)",
  "origin": "cited, not measured here",
  "key": {"castrated male rats": {"tested_on": "castrated male rats", "conditions": "Silastic pellets, 7 days later (Gray 1980); cited from earlier work"}, "[1]": {"tested_on": "sexually mature male rats", "conditions": "0.1 mg oral gavage daily 1 week; 0.1 and 0.01 mg daily 12 weeks (Adaikan 2003); cited from earlier work"}},
  "note": "At least one compound was matched to its structure with a doubt left.",
  "data": [
    {"smiles": "C[C@]12CC[C@@H]3c4ccc(O)cc4CC[C@H]3[C@@H]1CC[C@@H]2O", "note": "[estradiol]", "values": [
      {"measurement": "sexual behavior", "setting": "castrated male rats", "result": "stimulated mounting behavior but was less effective than testosterone in enhancing intromissions and ejaculations"},
      {"measurement": "serum estradiol and serum testosterone", "setting": "[1]", "result": "significantly increase serum estradiol and significantly decrease serum testosterone"}
    ]}
  ]
}
